PubChem BioAssay AID493014 (National Center for Advancing Translational Sciences (NCATS), 2011)
The other results are listed elsewhere or left out. Shown are side measurements of this screen, not its main read-out; they come without a call. The list favours compounds with an active or inconclusive main result. Words in brackets tell the shape of the fitted curve; partial curves, single points and poor fits give uncertain potencies.

Assay: qHTS Assay to Find Inhibitors of Chronic Active B-Cell Receptor Signaling
Conditions: ABC-DLBCL IkBa-CBG/CBR reporter, luminescence ratio (green luciferase fused to IkBa over red control in TMD8 lymphoma cells), 4 h
How it was run: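 Cell line TMD8 (human ABC DLBCL), stably expressing tet-inducible CBG68-IkBa fusion and CBR; IMDM/0.5% FBS; cpd up to 46 uM; dox induction, 4 h, 37C/5% CO2; dual luminescence; green/red ratio; MG132 control.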

[1] = measured here: CBR red luminescence, cell number
[2] = measured here: IkBa-CBG green luminescence

Question: Which AC50 [1] does the source give for O=C(O)c1cc(N/N=C/c2ccc(-c3ccccc3)cc2)ccc1Cl here?
Answer: 1.12 µM [falling, full curve]

Question: Which results are given for Cc1ccc(NC(=O)c2cc(S(=O)(=O)NCCc3ccccc3)ccc2F)cc1Cl?
Answer: AC50 [1]: 23.1 µM [falling, single point]; AC50 [2]: 13 µM [rising, partial curve, poor fit]

Question: With COc1ccccc1/C=C1\SC(=S)N(CCC(=O)NCCCN2CCOCC2)C1=O as the compound, how does the AC50 [1] read?
Answer: 8.91 µM [falling, partial curve, poor fit]

Question: With CCN(CC(=O)Nc1ccc2c(c1)OCCO2)C(=O)c1ccc(S(=O)(=O)N(C)C)cc1 as the compound, how does the AC50 [1] read?
Answer: 1.84 µM [falling, full curve, poor fit]

Question: With CCCCNc1ncnc2c1nnn2C as the compound, how does the AC50 [1] read?
Answer: 15.8 µM [falling, single point]

Question: With Cc1cc(C(=O)NCc2ccccc2Br)no1 as the compound, how does the AC50 [1] read?
Answer: 7.31 µM [falling, partial curve, poor fit]

Question: Which AC50 [1] does the source give for CCCCn1nnc(NC(=S)NC(=O)c2ccc(OCC)c([N+](=O)[O-])c2)n1 here?
Answer: 2 µM [falling, partial curve, poor fit]

Question: For COc1ccc(C2CC(c3ccc([N+](=O)[O-])cc3)=NN2C(C)=O)cc1 (stereo not drawn), which AC50 [1] is on record?
Answer: 15.8 µM [falling, partial curve, poor fit]

Question: For O=C1CC(c2ccccc2Oc2cccc(Cl)c2)C(n2cncn2)C(=O)C1C1NCCc2ccccc21 (stereo not drawn), which AC50 [1] is on record?
Answer: 35.5 µM [falling, single point]

Question: What about the AC50 [2] of the same compound?
Answer: 20 µM [rising, partial curve, poor fit]

Question: Which AC50 [1] does the source give for CCOCCCNC(=O)c1cc(-c2ccc(Br)s2)nc2ccccc12 here?
Answer: 1 µM [rising, full curve]

Question: For CCCNC(=O)C(=O)N/N=C/c1cccs1, which AC50 [1] is on record?
Answer: 23.1 µM [falling, single point]

Question: With COC(=O)c1ccc(Cn2cnc3ccccc3c2=O)cc1 as the compound, how does the AC50 [1] read?
Answer: 18.4 µM [falling, partial curve]

Question: With COc1cccc2sc(N(Cc3cccnc3)C(=O)Cc3ccccc3)nc12 as the compound, how does the AC50 [1] read?
Answer: 35.5 µM [falling, single point]

Question: For COc1cc(-c2cc(=O)c3c(O)cc(O)cc3o2)ccc1O, which AC50 [1] is on record?
Answer: 11.2 µM [falling, single point]

Question: Which AC50 [1] does the source give for COc1ccc(C(=O)N=c2nc3ccccn3s2)cc1 here?
Answer: 1.58 µM [falling, full curve]

Question: Which AC50 [1] does the source give for Cc1nc2ccccc2c(=O)n1-c1ccc(F)c(NS(=O)(=O)c2ccccc2F)c1 here?
Answer: 29.1 µM [rising, single point]

Question: For N/C(=N\OC(=O)COc1ccc(Cl)cc1Cl)c1cccnc1, which AC50 [1] is on record?
Answer: 2.91 µM [rising, partial curve, poor fit]

Question: Which AC50 [1] does the source give for COc1cc2nc(/C=C/c3cc(OC)c(OC)c(OC)c3)sc2cc1SC here?
Answer: 29.1 µM [falling, single point]

Question: Which AC50 [1] does the source give for CC(OC(=O)c1snc(C(=O)NC2CCCCC2)c1N)C(=O)NC1CCCCC1 (stereo not drawn) here?
Answer: 0.291 µM [falling, full curve]

Question: Which AC50 [1] does the source give for COC(=O)c1cccc(NC(=O)CCSc2ccc(Cl)cc2)c1C here?
Answer: 35.5 µM [rising, single point]

Question: Which AC50 [1] does the source give for Cc1ccc(/C=N/n2c(-c3ccco3)n[nH]c2=S)cc1 here?
Answer: 35.5 µM [falling, single point]

Question: With COc1ccccc1-n1c(CNC(=O)c2ccco2)nnc1SCC(=O)Nc1nccs1 as the compound, how does the AC50 [1] read?
Answer: 0.517 µM [falling, full curve, poor fit]

Question: Which AC50 [1] does the source give for CCCn1c(SCc2ccc(C(=O)OC)o2)nc2ccccc2c1=O here?
Answer: 1.58 µM [rising, partial curve, poor fit]

Question: With C=CCN1C(=O)C(Cc2ccc(C)cc2)S/C1=N/N=C/c1ccco1 (stereo not drawn) as the compound, how does the AC50 [1] read?
Answer: 23.1 µM [rising, partial curve, poor fit]

Question: With Cc1c(N=C/C=C2\N(C)c3ccccc3C2(C)C)c(=O)n(-c2ccccc2)n1C as the compound, how does the AC50 [1] read?
Answer: 7.94 µM [rising, partial curve, poor fit]

Question: With CC1(C)N=C(SCC(=O)Nc2ccccc2)C(c2ccc(Cl)cc2)=N1 as the compound, how does the AC50 [1] read?
Answer: 3.26 µM [falling, single point]

Question: With O=c1[nH]nc(Cc2ccc(-c3ccccc3Cl)o2)c2ccccc12 as the compound, how does the AC50 [1] read?
Answer: 13 µM [falling, partial curve]

Question: With Cc1cccc2sc(NC(=O)CCn3cccc3)nc12 as the compound, how does the AC50 [1] read?
Answer: 7.94 µM [falling, partial curve, poor fit]

Question: For CCOC(=O)N1CCN(c2cc(N3CCN(CC)CC3)c(F)cc2[N+](=O)[O-])CC1C (stereo not drawn), which AC50 [1] is on record?
Answer: 35.5 µM [falling, partial curve, poor fit]

Question: Which AC50 [1] does the source give for Cc1ccc(S(=O)(=O)/N=C(/NC(=S)Nc2ccccc2)c2ccccc2)cc1 here?
Answer: 16.4 µM [falling, single point]

Question: Which AC50 [1] does the source give for Cn1cc(C(CC(=O)O)C(=O)O)c2ccccc21 (stereo not drawn) here?
Answer: 2.31 µM [falling, partial curve, poor fit]

Question: What does the source list for N#C/C(C(=O)Nc1ccc(Cl)cc1)=C(/S)Nc1ccccc1?
Answer: AC50 [1]: 2 µM [rising, full curve]; AC50 [2]: 11.2 µM [falling, single point]

Question: With COc1ccc(C(=O)Oc2c(CN3CCOCC3)cc(Cl)c3cccnc23)cc1 as the compound, how does the AC50 [2] read?
Answer: 18.4 µM [falling, single point]

Question: With Cn1c(N)c(C(=O)COC(=O)CC(NC(N)=O)c2ccc(Cl)cc2)c(=O)n(C)c1=O (stereo not drawn) as the compound, how does the AC50 [1] read?
Answer: 0.0517 µM [rising, partial curve, poor fit]

Question: Which AC50 [1] does the source give for O=S(=O)(CCc1nc2ccccc2s1)c1ccc2ccccc2c1 here?
Answer: 5.8 µM [rising, full curve, poor fit]

Question: For O=C(O)CCCN1C(=O)/C(=C\C(Cl)=C\c2ccccc2)SC1=S, which AC50 [1] is on record?
Answer: 0.631 µM [falling, full curve]

Question: With CCOC(=O)Cn1nnnc1CN(CCc1ccccc1)Cc1cc2cc(CC)ccc2[nH]c1=O as the compound, how does the AC50 [1] read?
Answer: 20.6 µM [falling, single point]

Question: For Cc1ccc(-c2cc(C(F)(F)F)c(C#N)c(=O)[nH]2)cc1, which AC50 [1] is on record?
Answer: 16.4 µM [rising, partial curve, poor fit]

Question: Which AC50 [1] does the source give for CSc1nnc(NC(=O)c2nc(S(=O)(=O)Cc3ccccc3F)ncc2Cl)s1 here?
Answer: 22.4 µM [falling, single point]

Question: For O=S(=O)(NCCOCCNS(=O)(=O)c1ccccc1)c1ccccc1, which AC50 [1] is on record?
Answer: 15.8 µM [rising, single point]
